Source: the supplement of paper PMC4604168 (melanoma cell lines)
The other results are listed elsewhere or left out. Repeats are few or missing, and single values can be far off.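 The apoptosis fraction was the count of cleaved-PARP antibody-stained nuclei relative to all DNA-stained nuclei, imaged in 1,536-well plates. Screening doses were set so most cells survived, and baseline and induced cleaved-PARP levels vary greatly across cell lines.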

Test system: 501Mel
Experiment: cleaved PARP positive nuclei fraction relative to DMSO control; melanoma cells; higher = more apoptosis
Conditions: library dose: low library concentration; 72 h

SMILES | cleaved PARP positive nuclei fraction
O=C(/C=C/c1cccnc1)NCCCCC1CCN(C(=O)c2ccccc2)CC1 + C[As](C)SC[C@H](NC(=O)CC[C@H](N)C(=O)O)C(=O)NCC(=O)O [Darinaparsin] (first compound 0.01 µM, partner dose 0.4 µM) | 79.1%
OCc1c[nH]c2ccccc12 [Indole-3-carbinol] + C[As](C)SC[C@H](NC(=O)CC[C@H](N)C(=O)O)C(=O)NCC(=O)O [Darinaparsin] (first compound 0.8 µM, partner dose 0.4 µM) | 57.2%
Nc1ccn([C@@H]2O[C@H](CO)[C@@H](O)C2(F)F)c(=O)n1 [gemcitabine] + C[As](C)SC[C@H](NC(=O)CC[C@H](N)C(=O)O)C(=O)NCC(=O)O [Darinaparsin] (first compound 0.0004 µM, partner dose 0.4 µM) | 129%
Cn1c(=O)n(-c2ccc(C(C)(C)C#N)cc2)c2c3cc(-c4cnc5ccccc5c4)ccc3ncc21 + C[As](C)SC[C@H](NC(=O)CC[C@H](N)C(=O)O)C(=O)NCC(=O)O [Darinaparsin] (first compound 0.004 µM, partner dose 0.4 µM) | 133%
N.N.[Cl][Pt][Cl] [cisplatin] + Cc1nc(Nc2ncc(C(=O)Nc3c(C)cccc3Cl)s2)cc(N2CCN(CCO)CC2)n1 [dasatanib] (first compound 1.6 µM, partner dose 0.004 µM) | 421%
N.N.[Cl][Pt][Cl] [cisplatin] + C[C@@H](Oc1cc(-c2cnn(C3CCNCC3)c2)cnc1N)c1c(Cl)ccc(F)c1Cl [Crizotinib] (first compound 1.6 µM, partner dose 0.2 µM) | 102%
Cn1cc(C2=C(c3cn(C4CCN(Cc5ccccn5)CC4)c4ccccc34)C(=O)NC2=O)c2ccccc21 [Enzastaurin] + O=C(O)[C@@H]1[O][Sb](=[O])([O][Sb]2(=[O])[O][C@H]([C@H](O)CO)[C@H](O)[C@H](C(=O)O)[O]2)[O][C@H]([C@H](O)CO)[C@@H]1O [stibogluconate] (first compound 0.8 µM, partner dose 2 µM) | 143%
C[C@]12O[C@H](C[C@]1(O)CO)n1c3ccccc3c3c4c(c5c6ccccc6n2c5c31)CNC4=O [Lestaurtinib] + Nc1ccn([C@@H]2O[C@H](CO)[C@@H](O)C2(F)F)c(=O)n1 [gemcitabine] (first compound 0.004 µM, partner dose 0.0004 µM) | 106%
N.N.[Cl][Pt][Cl] [cisplatin] + CN1CCN(c2ccc3nc(-c4c(N)c5c(F)cccc5[nH]c4=O)[nH]c3c2)CC1 [Dovitinib] (first compound 1.6 µM, partner dose 0.1 µM) | 78.1%
NC1(c2ccc(-c3nc4ccn5c(=O)[nH]nc5c4cc3-c3ccccc3)cc2)CCC1 + C[As](C)SC[C@H](NC(=O)CC[C@H](N)C(=O)O)C(=O)NCC(=O)O [Darinaparsin] (first compound 0.4 µM, partner dose 0.4 µM) | 114%

Looked up one by one from the list above:
SMILES | cleaved PARP positive nuclei fraction
N.N.[Cl][Pt][Cl] [cisplatin] + C[C@@H](Oc1cc(-c2cnn(C3CCNCC3)c2)cnc1N)c1c(Cl)ccc(F)c1Cl [Crizotinib] (first compound 1.6 µM, partner dose 0.2 µM) | 102%
NC1(c2ccc(-c3nc4ccn5c(=O)[nH]nc5c4cc3-c3ccccc3)cc2)CCC1 + C[As](C)SC[C@H](NC(=O)CC[C@H](N)C(=O)O)C(=O)NCC(=O)O [Darinaparsin] (first compound 0.4 µM, partner dose 0.4 µM) | 114%
